Data: patent US20030166561A1 (priority 1999, published 2003)

Assay: peptide made by a vendor (Fmoc solid-phase peptide synthesis; FmocLeu-Wang resin)
Conditions: whole synthesis, analytical RP-HPLC

## DVSTSQAVLPDDFPRYPVGKFFKFDTWRQSAGRL
  final HPLC purity: >99%

Where no end group is shown, it is not given here.
